{"source": "patent US20250381324A1", "about": "(INSERM (Institut National de la Santé et de la Recherche …, priority 2021, published 2025)", "assay": "general procedure: Fmoc solid-phase peptide synthesis; Protide Rink-amide resin (CEM, 100-200 Mesh; loading 0.2 mmol/g); DIC/Oxyma", "conditions": "conjugation step, TFA salt", "data": [{"substance": "[^#CH2CONH2GTYKSTVIVNNKEKTTAEYQ-(Ttds)4-K(N3)-NH2]-[QHQMLFYhC^#DDVLFYNISSMK-CONH2]", "values": [{"measurement": "conjugation yield", "value": "Y=21%"}]}]}
